Reference: patent US20220152012A1 (The Regents of the University of California, priority 2020, published 2022)
Some results were stated once for a whole list of compounds, not compound by compound.

Tested on: human hepatic stellate cells from non-fibrosis subjects
Assay: Reversal of TGF-β or H2O2-induced fibrosis, collagen type I ELISA
Format: cell-based
Settings: inducer alone: H2O2 25 μM or TGF-β 20 ng/mL, vs vehicle (control)

## TGF-β
  increase of cellular collagen type I content: 4-5 fold
